# From patent US10487093B2, “Heterocyclic compounds, in particular 2-oxo-4,4,5,5,6,6,7,7-octahydrobenzoxazole derivatives, and their use as antibacterial compounds” (priority 2016, dated 2019)
# Some of these results come from one statement about several compounds together.
# Test system: E. coli MG1655 fluoroquinolone-mutant strains
# Format: cell-based, Escherichia coli
# Details: MG1655 S83L and MG1655 D87G versus parent MG1655; no significant loss
row,SMILES,loss of activity (fold change) against the E. coli MG1655 fluoroquinolone-mutant strains [fold]
1,"COc1ccc2ncc(=O)n(CCN[C@H]3CCC4C(C3)OC(=O)N4c3ccc4c(n3)NC(=O)CO4)c2n1 (stereo in doubt) [Compound 45, (3aS,6S,7aS)-6-[(2-{6-methoxy-3-oxo-3H,4H-pyrido[2,3-b]pyrazin-4-yl}ethyl)amino]-3-{3-oxo-2H,3H,4H-pyrido[3,2-b][1,4]oxazin-6-yl}-octahydro-1,3-benzoxazol-2-one]",≤ 2
2,"N#Cc1cccc(-c2cccc(CN[C@H]3CC[C@H]4[C@@H](C3)OC(=O)N4c3ccc4c(n3)NC(=O)CO4)c2O)n1 [Compound 18, 6-[3-({[(3aS,6S,7aR)-2-oxo-3-{3-oxo-2H,3H,4H-pyrido[3,2-b][1,4]oxazin-6-yl}-octahydro-1,3-benzoxazol-6-yl]amino}methyl)-2-hydroxyphenyl]pyridine-2-carbonitrile]",≤ 2
3,"O=C1COc2ccc(N3C(=O)O[C@@H]4C[C@@H](NCCn5c(=O)cnc6ccc(F)cc65)CC[C@@H]43)nc2N1 [Compound 26, 1-(2-{[(3aS,6S,7aR)-2-oxo-3-{3-oxo-2H,3H,4H-pyrido[3,2-b][1,4]oxazin-6-yl}-octahydro-1,3-benzoxazol-6-yl]amino}ethyl)-7-fluoro-1,2-dihydroquinoxalin-2-one]",≤ 2
4,"N#Cc1cnc2ccc(=O)n(CCN[C@H]3CC[C@H]4[C@H](C3)OC(=O)N4c3ccc4c(n3)NC(=O)CO4)c2c1 [Compound 55, 5-(2-{[(3aS,6S,7aS)-2-oxo-3-{3-oxo-2H,3H,4H-pyrido[3,2-b][1,4]oxazin-6-yl}-octahydro-1,3-benzoxazol-6-yl]amino}ethyl)-6-oxo-5,6-dihydro-1,5-naphthyridine-3-carbonitrile]",≤ 2
5,"COc1cnnc(-c2cccc(CN[C@@H]3CC[C@@H]4[C@@H](C3)OC(=O)N4c3ccc4c(n3)NC(=O)CO4)c2O)c1 [Compound 72, (3aR,6R,7aR)-6-({[2-hydroxy-3-(5-methoxypyridazin-3-yl)phenyl]methyl}amino)-3-{3-oxo-2H,3H,4H-pyrido[3,2-b][1,4]oxazin-6-yl}-octahydro-1,3-benzoxazol-2-one]",≤ 2
6,"COc1ccc2ncc(=O)n(CCN[C@H]3CC[C@H]4[C@@H](C3)OC(=O)N4c3ccc4c(n3)NC(=O)CO4)c2n1 [Compound 35, (3aS,6S,7aR)-6-[(2-{6-methoxy-3-oxo-3H,4H-pyrido[2,3-b]pyrazin-4-yl}ethyl)amino]-3-{3-oxo-2H,3H,4H-pyrido[3,2-b][1,4]oxazin-6-yl}-octahydro-1,3-benzoxazol-2-one]",≤ 2
7,"N#Cc1ccc2ccc(=O)n(CCN[C@H]3CC[C@H]4[C@H](C3)OC(=O)N4c3ccc4c(n3)NC(=O)CO4)c2c1 [Compound 56, 1-(2-{[(3aS,6S,7aS)-2-oxo-3-{3-oxo-2H,3H,4H-pyrido[3,2-b][1,4]oxazin-6-yl}-octahydro-1,3-benzoxazol-6-yl]amino}ethyl)-2-oxo-1,2-dihydroquinoline-7-carbonitrile]",≤ 2
8,"COc1ccc2ccc(=O)n(CCN(C(=O)CN)[C@H]3CC[C@H]4[C@H](C3)OC(=O)N4c3ccc4c(n3)NC(=O)CO4)c2n1 [Compound 78, {[(3aS,6S,7aS)-2-oxo-3-{3-oxo-2H,3H,4H-pyrido[3,2-b][1,4]oxazin-6-yl}-octahydro-1,3-benzoxazol-6-yl][2-(7-methoxy-2-oxo-1,2-dihydro-1,8-naphthyridin-1-yl)ethyl]carbamoyl}methanaminium chloride]",≤ 2
9,"Cn1ccc(-c2ccc3ccc(=O)n(CCN[C@H]4CC[C@H]5[C@H](C4)OC(=O)N5c4ccc5c(n4)NC(=O)CO5)c3c2)n1 [Compound 104, 1-(2-{[(3aS,6S,7aS)-2-oxo-3-{3-oxo-2H,3H,4H-pyrido[3,2-b][1,4]oxazin-6-yl}-octahydro-1,3-benzoxazol-6-yl]amino}ethyl)-7-(1-methyl-1H-pyrazol-3-yl)-1,2-dihydroquinolin-2-one]",≤ 2
10,"COc1ccc2ccc(=O)n(CCN[C@@H]3CC[C@@H]4[C@@H](C3)OC(=O)N4c3ccc4c(n3)NC(=O)CO4)c2n1 [Compound 1, 1-(2-{[(3aR,6R,7aR)-2-oxo-3-{3-oxo-2H,3H,4H-pyrido[3,2-b][1,4]oxazin-6-yl}-octahydro-1,3-benzoxazol-6-yl]amino}ethyl)-7-methoxy-1,2-dihydro-1,8-naphthyridin-2-one]",≤ 2
11,"N#Cc1ccc2ccc(=O)n(CCN[C@H]3CC[C@H]4[C@@H](C3)OC(=O)N4c3ccc4c(n3)NC(=O)CO4)c2c1 [Compound 14, 1-(2-{[(3aS,6S,7aR)-2-oxo-3-{3-oxo-2H,3H,4H-pyrido[3,2-b][1,4]oxazin-6-yl}-octahydro-1,3-benzoxazol-6-yl]amino}ethyl)-2-oxo-1,2-dihydroquinoline-7-carbonitrile]",≤ 2
12,"NCCOc1ccc2ccc(=O)n(CCN[C@H]3CC[C@H]4[C@H](C3)OC(=O)N4c3ccc4c(n3)NC(=O)CO4)c2c1 [Compound 75, (3aS,6S,7aS)—N-{2-[7-(2-azaniumylethoxy)-2-oxo-1,2-dihydroquinolin-1-yl]ethyl}-2-oxo-3-{3-oxo-2H,3H,4H-pyrido[3,2-b][1,4]oxazin-6-yl}-octahydro-1,3-benzoxazol-6-aminium dichloride]",≤ 2
13,"COc1ccc2ccc(=O)n(CCN[C@@H]3CC[C@@H]4[C@H](C3)OC(=O)N4c3ccc4c(n3)NC(=O)CO4)c2n1 [Compound 25, 1-(2-{[(3aR,6R,7aS)-2-oxo-3-{3-oxo-2H,3H,4H-pyrido[3,2-b][1,4]oxazin-6-yl}-octahydro-1,3-benzoxazol-6-yl]amino}ethyl)-7-methoxy-1,2-dihydro-1,8-naphthyridin-2-one]",≤ 2
14,"COc1ccc2ccc(=O)n(CCN(CCN)[C@H]3CC[C@H]4[C@@H](C3)OC(=O)N4c3ccc4c(n3)NC(=O)CO4)c2n1 [Compound 13, 1-(2-{[(3aS,6S,7aR)-2-oxo-3-{3-oxo-2H,3H,4H-pyrido[3,2-b][1,4]oxazin-6-yl}-octahydro-1,3-benzoxazol-6-yl](2-aminoethyl)amino}ethyl)-7-methoxy-1,2-dihydro-1,8-naphthyridin-2-one]",≤ 2
15,"N#Cc1ccc2ccc(=O)n(CCN[C@@H]3CC[C@@H]4[C@@H](C3)OC(=O)N4c3ncc4c(n3)NC(=O)CO4)c2c1 [Compound 37, 1-(2-{[(3aR,6R,7aR)-2-oxo-3-{7-oxo-6H,7H,8H-pyrimido[5,4-b][1,4]oxazin-2-yl}-octahydro-1,3-benzoxazol-6-yl]amino}ethyl)-2-oxo-1,2-dihydroquinoline-7-carbonitrile]",≤ 2
16,"NS(=O)(=O)c1ccc(Oc2ccc3ccc(=O)n(CCN[C@@H]4CC[C@@H]5[C@@H](C4)OC(=O)N5c4ccc5c(n4)NC(=O)CO5)c3n2)cc1 [Compound 8, 4-{[8-(2-{[(3aR,6R,7aR)-2-oxo-3-{3-oxo-2H,3H,4H-pyrido[3,2-b][1,4]oxazin-6-yl}-octahydro-1,3-benzoxazol-6-yl]amino}ethyl)-7-oxo-7,8-dihydro-1,8-naphthyridin-2-yl]oxy}benzene-1-sulphonamide]",≤ 2
17,"CNCCOc1ccc2ccc(=O)n(CCN[C@@H]3CC[C@@H]4[C@@H](C3)OC(=O)N4c3ccc4c(n3)NC(=O)CO4)c2c1 [Compound 39, (3aR,6R,7aR)—N-(2-{7-[2-(methylazaniumyl)ethoxy]-2-oxo-1,2-dihydroquinolin-1-yl}ethyl)-2-oxo-3-{3-oxo-2H,3H,4H-pyrido[3,2-b][1,4]oxazin-6-yl}-octahydro-1,3-benzoxazol-6-aminium dichloride]",≤ 2
18,"CCCOc1ccc2ccc(=O)n(CCN[C@H]3CC[C@H]4[C@H](C3)OC(=O)N4c3ccc4c(n3)NC(=O)CO4)c2c1 [Compound 91, 1-(2-{[(3aS,6S,7aS)-2-oxo-3-{3-oxo-2H,3H,4H-pyrido[3,2-b][1,4]oxazin-6-yl}-octahydro-1,3-benzoxazol-6-yl]amino}ethyl)-7-propoxy-1,2-dihydroquinolin-2-one]",≤ 2
19,"COc1ccc2ccc(=O)n(CCN(CCO)[C@H]3CC[C@H]4[C@@H](C3)OC(=O)N4c3ccc4c(n3)NC(=O)CO4)c2n1 [Compound 7, 1-(2-{[(3aS,6S,7aR)-2-oxo-3-{3-oxo-2H,3H,4H-pyrido[3,2-b][1,4]oxazin-6-yl}-octahydro-1,3-benzoxazol-6-yl](2-hydroxyethyl)amino}ethyl)-7-methoxy-1,2-dihydro-1,8-naphthyridin-2-one]",≤ 2
20,"COc1ccc2ccc(=O)n(CCCN[C@@H]3CC[C@@H]4[C@@H](C3)OC(=O)N4c3ncc4c(n3)NC(=O)CO4)c2n1 [Compound 79, 1-(3-{[(3aR,6R,7aR)-2-oxo-3-{7-oxo-6H,7H,8H-pyrimido[5,4-b][1,4]oxazin-2-yl}-octahydro-1,3-benzoxazol-6-yl]amino}propyl)-7-methoxy-1,2-dihydro-1,8-naphthyridin-2-one]",≤ 2
21,"N#Cc1cccc(-c2cccc(CN[C@H]3CC[C@H]4[C@H](C3)OC(=O)N4c3ccc4c(n3)NC(=O)CO4)c2)n1 [Compound 57, 6-[3-({[(3aS,6S,7aS)-2-oxo-3-{3-oxo-2H,3H,4H-pyrido[3,2-b][1,4]oxazin-6-yl}-octahydro-1,3-benzoxazol-6-yl]amino}methyl)phenyl]pyridine-2-carbonitrile]",≤ 2
22,"COc1cccc(-c2cccc(CN[C@@H]3CC[C@@H]4[C@@H](C3)OC(=O)N4c3ccc4c(n3)NC(=O)CO4)c2)n1 [Compound 80, (3aR,6R,7aR)-6-({[3-(6-methoxypyridin-2-yl)phenyl]methyl}amino)-3-{3-oxo-2H,3H,4H-pyrido[3,2-b][1,4]oxazin-6-yl}-octahydro-1,3-benzoxazol-2-one]",≤ 2
